Results as given in article PMC7819943, “Rice protein-binding microarrays: a tool to detect cis-acting elements near promoter regions in rice”.
Some of the results follow.

What follows are sequences tested against T1, OsSMF1 (Oryza sativa, UniProt Q6ZLB0 1-436) (assay: protein-binding microarray (RPBM); PBS, 2% BSA, 51.3 ng/ul salmon testes DNA, 50 uM zinc acetate, 200 nM TF, 25 C, 1 h; high values mean tight binding). Conditions: protein: recombinant; tags: N-terminal polyhistidine and DsRed monomer fusion (pET32a); chain copies: 2; label: CyDye5-dUTP incorporated in the synthesized complementary strand; 3' TTTTT single-stranded linker to array surface; dsDNA, one strand shown.
T1 sequence: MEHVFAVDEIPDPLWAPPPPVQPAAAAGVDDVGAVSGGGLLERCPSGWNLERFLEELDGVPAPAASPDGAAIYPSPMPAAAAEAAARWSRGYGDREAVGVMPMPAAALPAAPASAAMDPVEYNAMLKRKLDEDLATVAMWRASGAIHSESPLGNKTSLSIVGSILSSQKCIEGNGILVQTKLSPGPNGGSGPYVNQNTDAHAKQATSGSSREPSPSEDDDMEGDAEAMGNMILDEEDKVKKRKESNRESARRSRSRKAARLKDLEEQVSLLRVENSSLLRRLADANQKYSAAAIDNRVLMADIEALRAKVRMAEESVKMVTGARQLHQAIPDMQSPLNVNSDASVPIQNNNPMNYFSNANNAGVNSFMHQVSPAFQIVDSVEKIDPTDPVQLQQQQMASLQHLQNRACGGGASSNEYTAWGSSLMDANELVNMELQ
Procedure, shortened: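 Transcription factors, each fused N-terminally to a polyhistidine tag and DsRed, were expressed in E. coli BL21-CodonPlus and purified on Ni–NTA. A custom Agilent array was made double-stranded by primer extension with Cy5-dUTP and blocked with 2% BSA. It was incubated with 200 nM protein in PBS, 2% BSA, salmon testes DNA and 50 µM zinc acetate at 25 °C for 1 h, then washed. The binding signal is per-feature fluorescence intensity (arbitrary units) read on an Axon 4000B scanner.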

Sequence	binding signal
GAGATATCTGTTGATTAAAGTCCCCATGGATTAGCTGTGTCGGAGTCACCTAGTGCAG	35000 fluorescence intensity (a.u.)
TTCATATCATGAACCTTCCAATGGCATCATCTACGAAATGCGGAGTCACCTAGTGCAG	3590 fluorescence intensity (a.u.)
GCCGGGCGGGCGTGCGTCGTTATGTGAGGGCAAGGCCGCTCGGAGTCACCTAGTGCAG	6060 fluorescence intensity (a.u.)
GTGAGGAGGGTGAGGACGAAGTAGTCCGGGAGGTCGGCGCCGGAGTCACCTAGTGCAG	23000 fluorescence intensity (a.u.)
TGTGTTGGATCGGTTGGACGCGCTCACTCGGTTTGGTTTGCGGAGTCACCTAGTGCAG	3290 fluorescence intensity (a.u.)
CATCCCGCTCAACTACGCCACGTTCCAGCCGGGCACCACGCGGAGTCACCTAGTGCAG	22200 fluorescence intensity (a.u.)
CAGTATATTTTCAAATTTAATTTGGCTTGAGGCAGCTGCCCGGAGTCACCTAGTGCAG	3160 fluorescence intensity (a.u.)
CCCGGGAACACGCTCCAGAGATGCTGACTATCTTTCCCTTCGGAGTCACCTAGTGCAG	7100 fluorescence intensity (a.u.)
TTTAAACATCTTTCTATGGAACTGGTGCATTCTTGTTCATCGGAGTCACCTAGTGCAG	3680 fluorescence intensity (a.u.)
TATATGGTCCAACCTGTCATACACACATTGCGTATTGGAGCGGAGTCACCTAGTGCAG	4270 fluorescence intensity (a.u.)
GTGCATGGCGTGGCGTGGCGTGGCGTGGCGTGACATGGCACGGAGTCACCTAGTGCAG	15900 fluorescence intensity (a.u.)
AAATAAATAGGGAATTTAACCTTGCCACGTCACCGATCCGCGGAGTCACCTAGTGCAG	48100 fluorescence intensity (a.u.)
TCCTTCCATACTGTATAAATACTTTGAAATTCTAATATAGCGGAGTCACCTAGTGCAG	44200 fluorescence intensity (a.u.)
CTCAGCACTAAGCTCTTATGTGTGTGTCACACTGTCACTACGGAGTCACCTAGTGCAG	4720 fluorescence intensity (a.u.)
CTCATGTGAAATGTGTCGGTGACTCGTAGTCTTGCCCATGCGGAGTCACCTAGTGCAG	4260 fluorescence intensity (a.u.)
AGACTGGTGCTGCTGGATCCGTCTACCGTGGCTTGCCACCCGGAGTCACCTAGTGCAG	4850 fluorescence intensity (a.u.)
TTTTATGTATGTATTCAAATATTTCGATGTGACGGAATTTCGGAGTCACCTAGTGCAG	4210 fluorescence intensity (a.u.)
CAAAAGGGAATGCTTTAGGCAGATCATGGAGATAAAGACTCGGAGTCACCTAGTGCAG	39000 fluorescence intensity (a.u.)
CACGTGCAGTGACATGCTGACGTATGGGTGCAGGCCGCTGCGGAGTCACCTAGTGCAG	4260 fluorescence intensity (a.u.)
AAGTATGCTAGCTTTCCCTCCACGTATGCTAGCTTTCCGACGGAGTCACCTAGTGCAG	10400 fluorescence intensity (a.u.)
CCAGAGCTGCCTGTTACGTGGCCGACGACCACCGGTAGTGCGGAGTCACCTAGTGCAG	6320 fluorescence intensity (a.u.)
CGGCACCTCAGCACATCACACCAGATATATAATTAACCACCGGAGTCACCTAGTGCAG	4030 fluorescence intensity (a.u.)
AATCCACACTGGGCCCTTGCATGGAGCATGGGCCGAATAACGGAGTCACCTAGTGCAG	3810 fluorescence intensity (a.u.)
ACACCCATAGAACAAGAAACTGCCTCGTCACCGTAGCTTACGGAGTCACCTAGTGCAG	7850 fluorescence intensity (a.u.)
GTGGGCCGTGCCTCCCGTGACGCCATTTCAGCGACCGGAACGGAGTCACCTAGTGCAG	3480 fluorescence intensity (a.u.)
GAGAGGGGACGGGACAGCCGGCCGATGCTAAGTGGGTCTCCGGAGTCACCTAGTGCAG	4840 fluorescence intensity (a.u.)
GCGTGCACTCCCGTCCTGTTGTCGTGCCGTCTCCAGTCCCCGGAGTCACCTAGTGCAG	3210 fluorescence intensity (a.u.)

Four consecutive records from above, quoted:
Sequence	binding signal
TATATGGTCCAACCTGTCATACACACATTGCGTATTGGAGCGGAGTCACCTAGTGCAG	4270 fluorescence intensity (a.u.)
GTGCATGGCGTGGCGTGGCGTGGCGTGGCGTGACATGGCACGGAGTCACCTAGTGCAG	15900 fluorescence intensity (a.u.)
AAATAAATAGGGAATTTAACCTTGCCACGTCACCGATCCGCGGAGTCACCTAGTGCAG	48100 fluorescence intensity (a.u.)
TCCTTCCATACTGTATAAATACTTTGAAATTCTAATATAGCGGAGTCACCTAGTGCAG	44200 fluorescence intensity (a.u.)

The list goes on.

Sequence	binding signal
CTAAAGTTGTATTGAAAGCTCGTTCTACTGCCTATCTTTTCGGAGTCACCTAGTGCAG	16100 fluorescence intensity (a.u.)
TCGAGCCGGTAGATGTCTCAGCTAGTGCTTTATCTGTTCGCGGAGTCACCTAGTGCAG	3180 fluorescence intensity (a.u.)
ATCGCCCCGCTGACCGCCTCCTCCCGCGGCTGTCCGAGCGCGGAGTCACCTAGTGCAG	41300 fluorescence intensity (a.u.)
CAGCTCCTTGTCACTGTGTTATTCCTTTTGACGCATGTTGCGGAGTCACCTAGTGCAG	4610 fluorescence intensity (a.u.)
AGTCCAAGAGCGTGACGCATGTTCGGTACCACGCGCACAACGGAGTCACCTAGTGCAG	4740 fluorescence intensity (a.u.)
TTCTTATTGTCTTAGCTACAAACGATCCATACAAACATTGCGGAGTCACCTAGTGCAG	4240 fluorescence intensity (a.u.)
CCCCTAGTGTTATACAGTTACAACTACACCATCGTAGCACCGGAGTCACCTAGTGCAG	3230 fluorescence intensity (a.u.)
TGTGGTGGTGGAGGAGGAGCCCGCCATATTTGACTACGCACGGAGTCACCTAGTGCAG	3320 fluorescence intensity (a.u.)
CATGTAGAACCCACATGAGTCAATGACATGTAGAACCCACCGGAGTCACCTAGTGCAG	4240 fluorescence intensity (a.u.)
TGTTGCGGCCGTGAGACGATCACTGAGTCATTGTCCTCCGCGGAGTCACCTAGTGCAG	7950 fluorescence intensity (a.u.)
CACACACAAACTTTCAACTTTTCCGTCACGTCGTTCCAATCGGAGTCACCTAGTGCAG	4240 fluorescence intensity (a.u.)
CGTCGTCGTCGTATGTGCAAATTGTGCATGCGTGGTTGCGCGGAGTCACCTAGTGCAG	4630 fluorescence intensity (a.u.)
TCTCGAGCCCCGCACGCCATCATGTCGCCCTCAAGCCCCGCGGAGTCACCTAGTGCAG	4250 fluorescence intensity (a.u.)
GGACATCGTCGTTGTCGTTGCGGGCTTGACGTGGACGGCGCGGAGTCACCTAGTGCAG	7710 fluorescence intensity (a.u.)
CAACTAATCCCTCCGGGTTGATAATACTTGTCGTTTTGGACGGAGTCACCTAGTGCAG	4640 fluorescence intensity (a.u.)
CCCATGGAAATTGTTTAGAATGATGTGGGACCTGTCACATCGGAGTCACCTAGTGCAG	4510 fluorescence intensity (a.u.)
GAATGAGAGAAGATGACATGTGGACCCCACATGTCAGTTGCGGAGTCACCTAGTGCAG	4120 fluorescence intensity (a.u.)
TAAACTAGTACTACTAGTAGCACCCTAAACCCAAATTGATCGGAGTCACCTAGTGCAG	16600 fluorescence intensity (a.u.)
CCTCCATCTATGTCCTGCTGTCCAACATCTACGCGGATGCCGGAGTCACCTAGTGCAG	3820 fluorescence intensity (a.u.)
CATCGCCATTGCTGCAGGCTTCTCTCTCTTTCCCTTCTTACGGAGTCACCTAGTGCAG	15100 fluorescence intensity (a.u.)
TAGACGGGCACCGGCGGCAGCAGAGTCACCTTCCTTTCATCGGAGTCACCTAGTGCAG	3360 fluorescence intensity (a.u.)
TGTTGTTACACTATAATTACACCATAGTTACAAATGTAATCGGAGTCACCTAGTGCAG	3380 fluorescence intensity (a.u.)
CCCCACGTGTTAGCTGGGCACGTCATCACCCTCTCCCCTCCGGAGTCACCTAGTGCAG	19700 fluorescence intensity (a.u.)
ATCTTGATGATGTCGATCTCGATGTGGACGTGGTCGCCGTCGGAGTCACCTAGTGCAG	4150 fluorescence intensity (a.u.)
CGATCAGACGGACACGCAAACCAACCAAATCCCCGCGATCCGGAGTCACCTAGTGCAG	3210 fluorescence intensity (a.u.)
TCCACCTCGCGAGATCGTTAGGTTTCTCACAACCCGGTGGCGGAGTCACCTAGTGCAG	4070 fluorescence intensity (a.u.)
ACTTTGAGAGTTCTTCGATTTGTGTTTCATCGGGTTTCGGCGGAGTCACCTAGTGCAG	3630 fluorescence intensity (a.u.)
